## Percent effect of library compounds

Mtb cholesterol medium: 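Phenotypic screen: M. tuberculosis growth, cholesterol and DPPC medium, 4 days; the read-out is not stated. Concentration: 50 µM. The record gives no direction; compounds that gave an IC50 in retests scored well above the rest, so higher reads as more growth inhibition. About 69,000 compounds were tested under these conditions; 0.54% (about 370) showed 50% or more at least once.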
Mtb glucose medium: 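Whole-cell growth test on Mycobacterium tuberculosis, read after 3 days in glucose-containing 7H9 medium; the read-out is not stated. Concentration: 50 µM. The record gives no direction; compounds that gave an IC50 in retests scored well above the rest, so higher reads as more growth inhibition. About 69,000 compounds were tested under these conditions; 1.1% (about 760) showed 50% or more at least once.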

The filed quantity is “Percent Effect” (%). How 0% and 100% were set is not recorded. Most values in the screen are low, and negative values occur. The compounds are a random part of those screened. Two or more numbers in one place are separate tests of the same structure; such repeats can differ widely.

structure	Mtb cholesterol medium	Mtb glucose medium
O=c1ccc(-c2cccs2)nn1CN1CCN(c2ccccn2)CC1	-1.275	0.8638
CN(C(=O)c1cc(Cl)c[nH]1)C1CCN(c2ccccn2)CC1	-1.073	25.6
Cn1ncnc1-c1ccnc(N2CCC(C(O)c3cccs3)CC2)n1 (configuration not stated)	-0.7079	-0.9428 & -2.371
O=C(CNc1cc2c(cc1Br)OCCO2)NC1CCS(=O)(=O)C1 (configuration not stated)	-10.53	-26.66 & 3.559
O=C(O)C(F)(F)F.[H][C@@]12CN(Cc3nccs3)C[C@]1([H])C(=O)N(c1cncnc1)C2	-0.7945	-20.7
CC(=O)N1CCCN(C(=O)NCCCc2cn[nH]c2C)CC1	-2.771	7.768 & -1.291
Cc1cnn(C2CCCN(C(=O)c3sccc3C#N)C2)c1 (configuration not stated)	-17.71	-21.2
COc1cc(CNC2CCN(c3ccccc3)C2)cc(OC)c1OC (configuration not stated)	6.248	-2.314
CCCN1CCCn2c(nc(CNC(=O)c3cnoc3C)cc2=O)C1.O=C(O)C(F)(F)F	-19.68	-21.3
Cc1cc(Cc2cccc(C(F)(F)F)c2)cc(C2CCCNC2)n1 (configuration not stated)	35.69	69.04
Cc1ccc(NC2CCN(C(=O)c3ccc(Cl)o3)CC2)nn1	-17.08	-60.28
CCNC(=O)O[C@H]1COCCN(c2nc3ccccc3s2)C1	7.342	30.04 & -13.58
[H][C@@]12CNC[C@]1([H])CN(c1nc(C)nc3ccsc13)C2	20.41	40.45
CC(C)(C)OC(=O)NC(C)(C)c1noc(Cn2ccnc2)n1	-2.473	1.378
CCOc1ccc(CC(=O)Nc2cnccc2SCCCO)cc1	-10.07	9.262 & 16.14
CS(=O)(=O)NC1CCN(C(=O)NCC2CCCO2)CC1 (configuration not stated)	-9.989	-18.95
CC(C)Cc1noc(CN(C)C2CCCC2)n1	-1.23	-25.91 & -1.459
CN(C)C(=O)c1cn[nH]c1C1CCCN1Cc1cncn1C (configuration not stated)	-3.742 & 1.748	-9.743
CS(=O)(=O)NCc1nnc2n1CCN(Cc1ccccn1)C2	7.97 & -0.9386	-12.58
O=C(c1cccnc1SCc1ccccc1)N1CC[C@@H](O)C1	-38.57	-30.08
CCNc1ncc(C(=O)NC2COC3(CCCC3)C2)cn1 (configuration not stated)	14.38	33.98
CN1CCN2CCN(Cc3ccccc3Cn3cccn3)CC2C1 (configuration not stated)	-9.498 & -4.398	-4.372 & -21.49
COc1cc(C(=O)Nc2nc(C)no2)cc(OC)c1Br	13.4	25.68
O=C(C1CC1)N1CCc2c(ncnc2NCCc2nc3c(s2)CCC3)C1	-27.28	-23.53
Cc1cc(C)c(C(=O)NC2CCN(c3ncccc3C#N)CC2)c(=O)[nH]1	-18.04	8.384 & 8.985
CN(Cc1ccccc1)C(=O)CN1CCCCC1Cn1cncn1 (configuration not stated)	-15.59	8.45 & -12.85
Cn1cccc1C(=O)NCc1ccnc(C2CCCOC2)n1 (configuration not stated)	-9.971 & -5.859	-8.602
COCCO[C@H]1CCN(C(=O)c2cnccn2)[C@H]1Cc1ccncc1	4.747 & -6.913	11.36
COc1ccc(-n2ccc(CNCc3cccc(OC)c3)n2)cc1	-3.66	-12.74 & 10.76
COc1ncccc1C(=O)NCC1Cc2ccccc2O1 (configuration not stated)	-16.2	13.13 & 5.657
Cc1ccc(C(C(=O)O)N2CCCN(Cc3ccccn3)CC2)c(F)c1 (configuration not stated)	-6.38	-0.6713
CC(C)Cc1nc(CCn2ccc(=O)[nH]c2=O)n(-c2ccccn2)n1	-20.7 & 2.773	-42.1
Cc1cccc(Nc2cc(C)nc(C3CCCCN3CC(N)=O)n2)n1 (configuration not stated)	0.7519	20.88
CC(C)[C@H]1CN(CCCO)C[C@@H]1NC(=O)CCS(C)(=O)=O	7.662	-5.349
CS(=O)(=O)CCN(CC1CCCO1)C1CCCC1 (configuration not stated)	-18.42	-12.63 & -3.581
O=C(O)C(F)(F)F.[H][C@@]12C[C@H](C(=O)N(C)C)CN(CCOc3ccc(Cl)cc3)[C@]1([H])CCO2	14.61 & -4.013	-2.237 & 1.794
[H][C@]12C[C@@H](Cn3cncn3)N(C(C)=O)[C@@]1([H])CCN(c1ncccn1)C2	4.08	7.89 & -5.871
CC(C)COc1cncc(N(C)C2CCN(c3ncccn3)CC2)n1	52.19	66.72
Cn1nc(C2CN(C(=O)c3cccnc3)C2)c2nccnc21	-23.51	-27.78
[H][C@@]12CS(=O)(=O)C[C@]1([H])N(C(=O)Cc1ccc(F)c(C)c1)CCN2CC1CC1	-2.576	2.989 & -2.845
Cc1ccc(C)c(NC(=O)Cn2nc(C)c(C#N)c2N)c1	-4.121 & 1.378	8.599 & -10.64
O=C(c1cccnc1)N1CCc2onc(CN3CCCC3)c2C1	1.571	-5.084 & -23.23
COCCNc1cc(C)nn2cnnc12	-35.01	-37.15
Cc1cc(NCCS(C)(=O)=O)nc2cc3c(cc12)CCC3	-7.446	8.712
O=C(O)C(F)(F)F.O=C(c1cscn1)N1CCC2(CN(Cc3nccs3)C2)C1	-6.301 & 0.7338	-5.192
COCCC(=O)N1Cc2cnc(Cc3ccc(OC)cc3)nc2C1	14.08	-9.188
CCCC(=O)N1CCC(c2cc3n(n2)[C@@H](C(F)(F)F)C[C@@H](C)N3)CC1	-1.238	11.34
Cc1cn[nH]c1C1COCCN1C(=O)c1cc(F)ccc1F (configuration not stated)	-6.333 & -18.42	-17.45
CC(=O)N1CCN(Cn2nc(-c3ccc(F)cc3)oc2=O)CC1	-24.37	-13.43
COc1cccc(CNC(=O)c2nc3c(o2)CN(C(=O)N(C)C)C3)c1	2.652	-4.559 & -23.88
CC(C)Sc1ncccc1C(=O)NCc1ccc(CS(C)(=O)=O)cc1	-9.74	-25.82
Cn1cc(NS(=O)(=O)c2ccc3c(c2)CCCC3)ccc1=O	15.06	2.715 & 3.778
c1ccc(N2CCOC(Cc3cccnc3)C2)cc1 (configuration not stated)	-12.12	8.787
Cn1nccc1C(=O)NC(C)(C)c1noc(C(C)(C)C)n1	4.752 & -0.04709	4.962
Cc1cnn(CCNCC(O)c2ccc(F)c(F)c2)c1 (configuration not stated)	2.368	15.92
O=C(O)C(F)(F)F.O=C(O)C(F)(F)F.O=c1ccc2c(n1CCN1CCCC1)CCN(Cc1ccoc1)CC2	-0.7159	7.643
CCc1cc(O)n2nc(C3CCN(C(=O)c4ccncc4)CC3)cc2n1	-10.08 & -22.3	-25.74
O=C1NCCCC[C@@H]1Nc1ccc(-c2nc(C3CC3)no2)cn1	0.404	22.97

For reference, 5 entries once more:

structure,Mtb cholesterol medium,Mtb glucose medium
Cn1nccc1C(=O)NC(C)(C)c1noc(C(C)(C)C)n1,4.752 & -0.04709,4.962
CS(=O)(=O)NC1CCN(C(=O)NCC2CCCO2)CC1 (configuration not stated),-9.989,-18.95
CS(=O)(=O)CCN(CC1CCCO1)C1CCCC1 (configuration not stated),-18.42,-12.63 & -3.581
COc1ccc(-n2ccc(CNCc3cccc(OC)c3)n2)cc1,-3.66,-12.74 & 10.76
CC(C)Sc1ncccc1C(=O)NCc1ccc(CS(C)(=O)=O)cc1,-9.74,-25.82

From ChEMBL document CHEMBL3988442, “University of Dundee, Small-Polar-MMV Screening Library” (2021).